No constants are given. Whether binding was seen depends on the method and setting. Some binding calls cover weakened binding; strength is not graded here.
Experiments:
[1] = molecular target: PFV-Gag NtDCEN (Prototype foamy virus (PFV)) (UniProt P14349); experiment: AUC; sedimentation velocity, 50,000 rpm, 293 K, 20 mM Tris-HCl pH 8, 150 mM NaCl, 0.5 mM TCEP, interference data, 0.5-2.0 mg/ml, C(S) analysis with SEDFIT; both purified
[2] = molecular target: PFV-Gag(300–477) (Prototype foamy virus (PFV)) (UniProt P14349); experiment: as above
[3] = molecular target: PFV-Gag(300–477) (Prototype foamy virus (PFV)) (UniProt P14349); experiment: AUC; multi-speed sedimentation equilibrium at varying protein concentration, 20 mM Tris-HCl pH 8, 150 mM NaCl, 0.5 mM TCEP, interference data, global fit with SEDPHAT; monomer to dimer; both purified
[4] = molecular target: PFV-Gag CtDCEN (Prototype foamy virus (PFV)) (UniProt P14349); experiment: NMR solution structure; 298 K, 20 mM Tris-HCl, 20 mM NaCl, 0.5 mM TCEP pH 7.0, 1.6-2 mM protein; intermolecular NOEs from filtered NOESY on a dimer of unlabelled and 13C/15N-labelled protein mixed equimolar; both purified
[5] = molecular target: PFV-Gag CtDCEN (Prototype foamy virus (PFV)) (UniProt P14349); experiment: AUC; sedimentation velocity, 50,000 rpm, 293 K, 20 mM Tris-HCl pH 8, 150 mM NaCl, 0.5 mM TCEP, interference data, 0.5-2.0 mg/ml, C(S) analysis with SEDFIT; both purified

“PFV-Gag NtDCEN (from UniProt P14349 300-381) (domain or fragment)” was tested. Which binding [1] did it give?
The binding was “no binding (tested: 188 μM)”.

Which results are given for “PFV-Gag(300–477) (from UniProt P14349 300-477) (domain or fragment)”?
binding [2]: no binding (tested: 24–97 μM); binding [3]: no binding (tested: 24–97 μM)

B1: PFV-Gag CtDCEN (domain or fragment)
chain: RTHGTFPMHQLGNVIKGIVDQEGVATAYTLGMMLSGQNYQLVSGIIRGYLPGQAVVTALQQRLDQEIDNQTRAETFIQHLNAVYEILGLNARGQSIR
notes: Gag of Prototype foamy virus (PFV), residues 381-477 (CtDCEN), amplified from plasmid pcziGag4, in pET22b (NdeI/XhoI); also called PFV-CtDCEN; source: E. coli Rosetta 2 (DE3), purified (Ni-NTA, SEC on Superdex 75)
Which binding [4] does the source give for B1 here?
Its binding is “binds weakly”.

And the binding [5]?
The binding was “binds weakly”.

Reference: publication PMC5102385, “Structure of a Spumaretrovirus Gag Central Domain Reveals an Ancient Retroviral Capsid” (PLoS Pathogens, 2016)
